According to publication PMC5605516:
No constants are given. Whether binding was seen depends on the method and setting. Binding seen in cells or lysates may run through a third protein. Some binding calls cover weakened binding; strength is not graded here. For part of these data: Where a sequence is shown, tags or fusion partners need not be part of it.

Sequences of proteins named here, by UniProt entry; tags and fusion partners are left off.
UniProt Q7Z434: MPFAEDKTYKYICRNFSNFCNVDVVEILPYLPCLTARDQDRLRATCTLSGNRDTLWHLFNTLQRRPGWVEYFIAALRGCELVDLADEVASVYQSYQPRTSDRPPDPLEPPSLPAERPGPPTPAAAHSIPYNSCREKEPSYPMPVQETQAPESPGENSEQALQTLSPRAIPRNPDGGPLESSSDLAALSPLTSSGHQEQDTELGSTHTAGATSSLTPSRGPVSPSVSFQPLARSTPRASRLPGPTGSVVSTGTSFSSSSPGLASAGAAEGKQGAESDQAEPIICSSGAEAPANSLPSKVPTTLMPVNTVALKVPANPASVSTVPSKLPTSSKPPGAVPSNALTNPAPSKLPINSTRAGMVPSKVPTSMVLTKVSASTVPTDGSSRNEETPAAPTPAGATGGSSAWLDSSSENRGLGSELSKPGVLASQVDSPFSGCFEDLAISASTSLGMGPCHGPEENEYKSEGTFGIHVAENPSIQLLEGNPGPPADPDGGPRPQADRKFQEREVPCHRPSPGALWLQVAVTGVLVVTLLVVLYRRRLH

Assays:
[1] = biological target: FLAG-tagged MAVS (UniProt Q7Z434); assay: proximity ligation; HeLa or THP-1 cells transfected with FLAG-MAVS and Zyxin-HA, fixed, anti-FLAG and anti-HA antibodies, Duolink in situ PLA kit, confocal microscopy
[2] = biological target: T1, FLAG-tagged RIG-I (UniProt O95786); assay: co-IP
T1 sequence: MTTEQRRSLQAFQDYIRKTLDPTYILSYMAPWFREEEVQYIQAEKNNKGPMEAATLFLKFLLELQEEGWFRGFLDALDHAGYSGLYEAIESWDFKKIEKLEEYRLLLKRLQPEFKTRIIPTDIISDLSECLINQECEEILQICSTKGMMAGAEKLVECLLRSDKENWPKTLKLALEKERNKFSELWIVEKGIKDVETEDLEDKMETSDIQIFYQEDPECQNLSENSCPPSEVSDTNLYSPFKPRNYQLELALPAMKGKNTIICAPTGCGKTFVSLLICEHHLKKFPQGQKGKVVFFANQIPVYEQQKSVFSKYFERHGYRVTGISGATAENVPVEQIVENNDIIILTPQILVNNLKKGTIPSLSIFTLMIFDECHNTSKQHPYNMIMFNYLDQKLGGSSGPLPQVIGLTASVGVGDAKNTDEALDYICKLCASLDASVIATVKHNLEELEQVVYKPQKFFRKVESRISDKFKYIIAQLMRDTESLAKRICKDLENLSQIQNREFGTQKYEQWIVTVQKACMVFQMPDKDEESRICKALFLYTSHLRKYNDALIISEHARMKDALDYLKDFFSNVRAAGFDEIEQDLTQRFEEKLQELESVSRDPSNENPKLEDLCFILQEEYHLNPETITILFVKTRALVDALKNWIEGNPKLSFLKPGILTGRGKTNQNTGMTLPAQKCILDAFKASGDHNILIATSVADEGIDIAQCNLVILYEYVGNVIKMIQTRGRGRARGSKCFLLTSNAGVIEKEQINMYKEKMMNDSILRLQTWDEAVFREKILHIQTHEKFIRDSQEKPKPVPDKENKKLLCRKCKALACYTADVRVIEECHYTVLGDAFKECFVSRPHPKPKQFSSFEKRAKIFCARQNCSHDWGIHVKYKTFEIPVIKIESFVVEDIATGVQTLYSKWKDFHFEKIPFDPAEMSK

[3] = biological target: T2, FLAG-tagged MDA5 (UniProt Q9BYX4); assay: co-IP
T2 sequence: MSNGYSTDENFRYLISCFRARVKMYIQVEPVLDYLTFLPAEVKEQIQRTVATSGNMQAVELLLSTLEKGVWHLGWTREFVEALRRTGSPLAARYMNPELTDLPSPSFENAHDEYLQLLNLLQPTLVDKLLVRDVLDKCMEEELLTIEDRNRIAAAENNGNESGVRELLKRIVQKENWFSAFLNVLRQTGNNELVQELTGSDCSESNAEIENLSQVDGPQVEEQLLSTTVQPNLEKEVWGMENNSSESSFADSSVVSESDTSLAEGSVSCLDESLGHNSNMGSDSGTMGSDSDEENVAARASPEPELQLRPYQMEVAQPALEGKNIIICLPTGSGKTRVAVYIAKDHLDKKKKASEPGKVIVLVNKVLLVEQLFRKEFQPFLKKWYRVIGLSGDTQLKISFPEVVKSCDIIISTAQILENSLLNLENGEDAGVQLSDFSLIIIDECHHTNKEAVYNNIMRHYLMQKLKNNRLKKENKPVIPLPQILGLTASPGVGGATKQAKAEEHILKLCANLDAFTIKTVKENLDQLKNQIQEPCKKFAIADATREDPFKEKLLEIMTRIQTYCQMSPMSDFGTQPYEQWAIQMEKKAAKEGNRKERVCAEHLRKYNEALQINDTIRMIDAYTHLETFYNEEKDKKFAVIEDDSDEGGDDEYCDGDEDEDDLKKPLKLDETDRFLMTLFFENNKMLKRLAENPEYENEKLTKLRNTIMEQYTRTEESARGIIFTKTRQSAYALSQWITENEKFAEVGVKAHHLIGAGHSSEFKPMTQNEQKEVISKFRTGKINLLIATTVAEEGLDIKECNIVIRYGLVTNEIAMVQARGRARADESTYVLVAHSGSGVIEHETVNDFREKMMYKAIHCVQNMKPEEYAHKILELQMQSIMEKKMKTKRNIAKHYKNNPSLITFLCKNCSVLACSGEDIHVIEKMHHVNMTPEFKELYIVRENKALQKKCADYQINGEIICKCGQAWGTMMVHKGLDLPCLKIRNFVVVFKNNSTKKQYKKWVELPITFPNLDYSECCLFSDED

[4] = biological target: FLAG-tagged MAVS (UniProt Q7Z434); assay: co-IP
[5] = biological target: endogenous MAVS (human (endogenous in HEK293FT)) (UniProt Q7Z434); assay: co-IP; endogenous proteins of HEK293FT lysate, mock or 5'-pppRNA transfected for 6 h; IP with anti-MAVS antibody or control IgG, blots with anti-MAVS and anti-zyxin

Measured: binding

B1: HA-tagged zyxin, full length (protein, UniProt Q15942 1-572)
chain: MAAPRPSPAISVSVSAPAFYAPQKKFGPVVAPKPKVNPFRPGDSEPPPAPGAQRAQMGRVGEIPPPPPEDFPLPPPPLAGDGDDAEGALGGAFPPPPPPIEESFPPAPLEEEIFPSPPPPPEEEGGPEAPIPPPPQPREKVSSIDLEIDSLSSLLDDMTKNDPFKARVSSGYVPPPVATPFSSKSSTKPAAGGTAPLPPWKSPSSSQPLPQVPAPAQSQTQFHVQPQPQPKPQVQLHVQSQTQPVSLANTQPRGPPASSPAPAPKFSPVTPKFTPVASKFSPGAPGGSGSQPNQKLGHPEALSAGTGSPQPPSFTYAQQREKPRVQEKQHPVPPPAQNQNQVRSPGAPGPLTLKEVEELEQLTQQLMQDMEHPQRQNVAVNELCGRCHQPLARAQPAVRALGQLFHIACFTCHQCAQQLQGQQFYSLEGAPYCEGCYTDTLEKCNTCGEPITDRMLRATGKAYHPHCFTCVVCARPLEGTSFIVDQANRPHCVPDYHKQYAPRCSVCSEPIMPEPGRDETVRVVALDKNFHMKCYKCEDCGKPLSIEADDNGCFPLDGHVLCRKCHTARAQT
not listed: [5]
binds: all other assays above

B2: endogenous zyxin (protein, UniProt Q15942 1-572)
chain: MAAPRPSPAISVSVSAPAFYAPQKKFGPVVAPKPKVNPFRPGDSEPPPAPGAQRAQMGRVGEIPPPPPEDFPLPPPPLAGDGDDAEGALGGAFPPPPPPIEESFPPAPLEEEIFPSPPPPPEEEGGPEAPIPPPPQPREKVSSIDLEIDSLSSLLDDMTKNDPFKARVSSGYVPPPVATPFSSKSSTKPAAGGTAPLPPWKSPSSSQPLPQVPAPAQSQTQFHVQPQPQPKPQVQLHVQSQTQPVSLANTQPRGPPASSPAPAPKFSPVTPKFTPVASKFSPGAPGGSGSQPNQKLGHPEALSAGTGSPQPPSFTYAQQREKPRVQEKQHPVPPPAQNQNQVRSPGAPGPLTLKEVEELEQLTQQLMQDMEHPQRQNVAVNELCGRCHQPLARAQPAVRALGQLFHIACFTCHQCAQQLQGQQFYSLEGAPYCEGCYTDTLEKCNTCGEPITDRMLRATGKAYHPHCFTCVVCARPLEGTSFIVDQANRPHCVPDYHKQYAPRCSVCSEPIMPEPGRDETVRVVALDKNFHMKCYKCEDCGKPLSIEADDNGCFPLDGHVLCRKCHTARAQT
binds: [5] | [4]
